# Measurements reported in PubChem BioAssay AID1053208 (Peter MacCallum Cancer Centre, 2014)
# Purpose: 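Synthetic lethal interactions between gene loss and doxorubicin in osteosarcoma cells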 (primary screen)
# Cells: mouse osteosarcoma cells, early-passage culture from an engineered mouse model of fibroblastic bone tumour
# Reagents: siRNA pool against mouse genes, 40 nM
# Time to read-out: about 120 h (48 h before drug, then 72 h with drug)
# Treatment: doxorubicin 100 nM for 72 h, roughly 30-40% inhibitory dose
# Read-out: 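Luminescent ATP signal taken as viability with or without 100 nM doxorubicin for 72 h; mean of two wells set against non-targeting siRNA and turned into robust z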
# Reading the numbers: viability z-score with doxorubicin and doxorubicin viability vs non-targeting: higher = more viable cells under doxorubicin; viability z-score without drug: higher = more viable cells with knock-down alone; z-score of drug to no-drug ratio: higher = less drug sensitisation by knock-down
# Call rule: 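Called active if knock-down leaves viability unchanged without drug (z within -2 to 2) but lowers it with doxorubicin (z at or under -2)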
# The whole screen tested about 17,000 reagents; shown is an unselected part. Over the whole deposit, 788 (4.7%) are marked active. 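Calls rest on z-score classes alone; an extra cut-off of viability at most 70% of control was not applied to them.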 Entries without a mark were called inactive. The numbers tell different reagents against one gene apart.
target gene,reagent,combined z-score class,viability z-score with doxorubicin,viability z-score without drug,z-score of drug to no-drug ratio,doxorubicin viability vs non-targeting
Cox7a2l (GeneID 20463),1,no change with or without drug,-0.56,-1.85,0.9,0.89
Vmn2r1 (GeneID 56544),1,no change with or without drug,-1.57,-1.18,-0.79,0.8
Akip1 (GeneID 57373),1,no change with or without drug,-0.9,0.34,-1.01,0.86
Mppe1 (GeneID 225651),1,no change with or without drug,-0.45,-0.84,0.22,0.9
Kng1 (GeneID 16644),1,no change with or without drug,-0.67,-1.18,0.22,0.88
Lbx2 (GeneID 16815),1,no change with or without drug,-0.45,1.85,-1.46,0.9

2 entries from above in another layout.
Cox7a2l (GeneID 20463) → combined z-score class = no change with or without drug; viability z-score with doxorubicin = -0.56; viability z-score without drug = -1.85; z-score of drug to no-drug ratio = 0.9; doxorubicin viability vs non-targeting = 0.89
Vmn2r1 (GeneID 56544) → combined z-score class = no change with or without drug; viability z-score with doxorubicin = -1.57; viability z-score without drug = -1.18; z-score of drug to no-drug ratio = -0.79; doxorubicin viability vs non-targeting = 0.8

Next reagents follow:
target gene,reagent,combined z-score class,viability z-score with doxorubicin,viability z-score without drug,z-score of drug to no-drug ratio,doxorubicin viability vs non-targeting
D930031A20Rik (GeneID 319423),1,no change with or without drug,-1.12,-0.51,-0.79,0.84
Rplp2 (GeneID 67186),1,low cell count with and without drug,-5.06,-6.91,-0.79,0.49
Cnga1 (GeneID 12788),1,no change with or without drug,0.22,-1.52,1.57,0.96
Pax8 (GeneID 18510),1,no change with or without drug,0.56,-0.17,0.79,0.99
Cldn15 (GeneID 60363),1,low cell count with doxorubicin only (active),-2.47,-1.85,-1.35,0.72
Ss18l2 (GeneID 26901),1,no change with or without drug,0.67,1.52,-0.22,1
Cat (GeneID 12359),1,no change with or without drug,1.57,0.51,1.35,1.08
Slc16a11 (GeneID 216867),1,no change with or without drug,-1.12,-0.84,-0.56,0.84
Adm (GeneID 11535),1,no change with or without drug,1.57,1.52,0.67,1.08
Ceacam10 (GeneID 26366),1,low cell count with doxorubicin only (active),-2.14,-0.51,-1.8,0.75
Dab1 (GeneID 13131),1,no change with or without drug,-0.22,0,-0.11,0.92
Dab1 (GeneID 13131),2,no change with or without drug,1.12,0,1.24,1.04
Onecut2 (GeneID 225631),1,no change with or without drug,1.01,0.84,0.56,1.03
Stag3 (GeneID 50878),1,no change with or without drug,1.24,1.18,0.56,1.05
